Data on five compounds can be found in patent US20090036437A1, “PHARMACEUTICAL COMPOSITION COMPRISING PHENOXAZINIUM COMPOUND AS AN ACTIVE INGREDIENT” (priority 2005, published 2009).

Common to all, as to assay type: cell-based
For series [1], the system named is Plasmodium Falciparum K1 strain. Put plainly: in vitro growth-inhibiting screening assay, chloroquine-resistant falciparum malaria. The following applies: EC50 rat L6 cell / EC50 P. falciparum K1. The protocol: Plasmodium Falciparum K1 strain was used as a chloroquine-resistant protozoa of falciparum malaria. RMI-1640 sterilized by filtration was supplemented with human serum of a final concentration of 5% to be used as a culture medium. The malaria protozoa were cultured under O2 concentration of 3%, CO2 concentration of 4%, N2 concentration of 93% at 37° C.
A test sample was prepared by dissolving the test compounds according to the present invention and a positive control drug (chloroquine) in DMSO to a predetermined concentration. […]
After culture for 48 hours at 37° C., hypoxanthine labeled with radioactive tritium (^3H) of 0.5 μCi was added to each well. […] Intensity of radiation was measured by means of plate liquid scintillation counter (Wallac Co.), and an infection ratio of the protozoa of malaria was calculated with respect to a group treated with the test sample and the control. […]
Anti-malaria effect of the samples was assessed by their EC50 values for the chloroquine-resistant protozoa of falciparum malaria and the rat L6 cell. A chemotherapy coefficient, which is used as an index for the selective toxicity for the chloroquine-resistant protozoa of falciparum malaria was calculated by the following equation, and the pharmaceutical effect was determined. […]

Series [2] relates to Leishmania donovani (MHOM/ET/67/L82 strain). Put plainly: in vitro growth-inhibiting screening assay, protozoa of Leishmaniasis. The settings on record: EC50 rat L6 cell / EC50 protozoa of Leishmaniasis. The method, then: This test was done using the protozoa of Leishmania donovani (MHOM/ET/67/L82 strain). The protozoa were subcultured using Syrian Golden hamster and an amastigote was obtained therefrom. The amastigotes were cultured in SM medium supplemented with 10% of heat-treated fetal calf serum (pH 5.4) under CO2 concentration of 5%, at 37° C.
A test sample was prepared by dissolving the test compounds according to the present invention and a positive control drug (Miltefosine) in DMSO to a predetermined concentration. Culture medium containing a predetermined number of the protozoa was added into each well of a 96-well culture plate, and the concentration of the amastigotes was measured by means of CASY cell analysis system (Dermany, Scharfe Co.). Test sample comprising the predetermined amount of the test compound, and DMSO without the test compound were added to the wells in duplicate.
After incubation of the culture plate for 72 hours in an incubator, a growth-inhibiting activity was assayed as follows. […] The culture plate was then attached to a fluorescence micro titer plate reader (Spectramax Gemeni XS; U.S. Molecular device Co.), the intensity of fluorescence at 588 nm was detected with excitation wave length of 536 nm to calculate an infection ratio of the protozoa with respect to a group trated with the test sample and a control group. […]

Series [3] relates to Trypanosoma cruzi (Tulahuen C2C4 strain). Nature of the series: in vitro growth-inhibiting screening assay, protozoa of American trypanosomiasis. The following applies: EC50 rat L6 cell / EC50 protozoa of American trypanosomiasis. The protocol:
The test was done using a trypomastigote and an amastigote of the protozoa of Trypanosoma cruzi (Tulahuen C2C4 strain) present in the infected rat L6 cells. The L6 cells were cultured in RPMI-1640 medium supplemented with 1% of […] (200 mM) and 10% of fetal calf serum under CO2 concentration of 5%, at 37° C.
A test sample was prepared by dissolving the test compounds according to the present invention and a positive control drug (benznidazole) in DMSO to a predetermined concentration. Culture medium containing the protozoa of 5×10^3 was added into each well of 96-well culture plate and cultured for 48 hours. After the medium was exchanged, the test sample comprising the predetermined amount of the test compound, and DMSO without the test compound were added into each well in duplicate.
After incubation of the culture plate for 96 hours in an incubator, a growth-inhibiting activity was assayed as follows. CPRG/Nonidet (50 μL) was added to each well followed by a further 2˜6-hour culture. The culture plate was then attached to an absorption micro titer plate reader, the absorbance at 540 nm was detected to calculate an infection ratio of the protozoa with respect to a group treated with the test sample and a control group. A growth-inhibiting ratio was then calculated from the resulting infection ratio in accordance with the following equation to determine 50% growth-inhibiting concentration (EC50).
Growth-inhibiting ratio (%)=[1−(b−a)/(c−a)]×100 • a: Initial infection ratio; • b: Infection ratio of the test sample group; and • c: Infection ratio of the control group.
A selective toxicity coefficient, which is used as an index for the selective toxicity for the protozoa of American trypanosomiasis, was calculated by the following equation, and the pharmaceutical effect was determined.
A selective toxicity coefficient=(EC50 value of the test sample for rat L6 cell)/(EC50 value of the test sample for the protozoa of American trypanosomiasis).

The subject of series [4] is Trypanosoma brucei rhodensiense (STIB 900 strain). Nature of the series: in vitro growth-inhibiting screening assay, protozoa of African trypanosomiasis. The settings on record: EC50 rat L6 cell / EC50 protozoa of African trypanosomiasis. The method, then:
This test was done using a trypomastigote of the protozoa of Trypanosoma brucei rhodensiense (STIB 900 strain) ranging in blood stream. MEM medium sterilized by filtration was supplemented with 25 mM of N-2-hydroxyethylpiperazine-2-ethanesulfonic acid (HEPES), 1 g/L of glucose, 1% of MEM non-essential amino acids, 0.2 mM of 2-mercaptoethanol, 2 mM of sodium pyruvate, 1 mM of hypoxathine and 15% of heat-treated horse serum. The protozoa were cultured under CO2 concentration of 5%, at 37° C.
A test sample was prepared by dissolving the test compounds according to the present invention and a positive control drug (Melarsoprol) in DMSO to a predetermined concentration. […]
After incubation of the culture plate for 72 hours in an incubator, a growth-inhibiting activity was assayed as follows. […] The culture plate was then attached to a fluorescence micro titer plate reader (Spectramax Gemeni XS; U.S. Molecular Device Co.), the intensity of fluorescence at 588 nm was detected with excitation wave length of 536 nm to calculate an infection ratio of the protozoa with respect to a group treated with the test sample and a control group. […]
A selective toxicity coefficient, which is used as an index for the selective toxicity for the protozoa of African trypanosomiasis, was calculated by the following equation, and the pharmaceutical effect was determined. […]

In the case of `CCN(CC)c1ccc2nc3ccc(=[N+](CC)CC)cc-3oc2c1.[Cl-]` [A-1 (60% purity)], the Selective toxicity in series [1] was 860; in series [2], 1.4; in series [3], 27; in series [4], 22. For the compound `CCN(CC)c1ccc2nc3ccc(=[N+](CC)CC)cc-3oc2c1.[Cl-]` [A-1 (>95% purity)], the Selective toxicity in series [3] came to 1400. Same read-out and setting: with `CN(C)c1ccc2nc3ccc(=[N+](C)C)cc-3oc2c1.CN(C)c1ccc2nc3ccc(=[N+](C)C)cc-3oc2c1.[Cl-].[Cl-].[Cl][Zn][Cl]` [Compound A-3] the figure was 19; with `CCCC[N+](CCCC)=c1ccc2nc3ccc(N(CC)CC)cc3oc-2c1.[Cl-]` [Compound A-6], 35. `CCCC[N+](CCCC)=c1ccc2nc3ccc(N(C)C)cc3oc-2c1.[O-][Cl+3]([O-])([O-])[O-]` [Compound A-7] gave a Selective toxicity in series [3] of 19.
